PubChem BioAssay AID504791 – Drosophila RNAi Screening Center – 2011
The screen tested about 23,000 reagents; below is a random part of those with a known target gene and a result. Over the whole deposit, 199 (0.86%) were called active. 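Plate-scaled ratios behind the calls are not deposited; printed light signals are raw; many rows marked increased or decreased are still called inactive.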 No sequences are given here. Not stated in the record: the direction of the score.

Aim: 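Factors in Argonaute-based small RNA production and activity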 (primary screen)
System: Drosophila S2-derived reporter cells
Reagents: long dsRNA against Drosophila genes, about 150-250 ng dsRNA per well (siRNA assay); about 80-120 ng (miRNA assay)
Timing: about 5 days (siRNA assay); about 4 days (miRNA assay)
Challenge: copper sulfate induction of reporters: 25 µM (siRNA assay); 200 mM stated (miRNA assay), 1-2 days before reading
Detection: 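Per-well ratio of Renilla over firefly light, expressed relative to that plate's average ratio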
Rule for the call: 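First-pass picks had plate-scaled ratios over 1.5 for the siRNA assay, over 1.6 for the miRNA assay, or under 0.6; two distinct dsRNAs had to score alike on retest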

predicted target,dsRNA,stable siRNA reporter change,"stable assay Renilla, run 1 (luminescence)","stable assay firefly, run 1 (luminescence)",call
peb,DRSC18817,,5163,1.98e5,inactive
peb,DRSC23057,,3995,2.50e5,inactive
yellow-e,DRSC12966,,3767,3.93e5,inactive
yellow-e,DRSC16563,,6063,3.37e5,inactive
Jhbp15,DRSC15217,,6507,2.94e5,inactive
CG3376,DRSC04362,,24441,2.03e6,inactive
PIG-T,DRSC17774,,5676,3.36e5,inactive
CG5885,DRSC02910,,34259,7.16e5,inactive
Gart,DRSC03481,,6562,3.41e5,inactive
tow,DRSC10192,reporter ratio raised past the hit cutoff,4667,1.74e5,inactive
tow,DRSC23125,,4918,3.53e5,inactive
nom,DRSC16389,,7055,3.86e5,inactive
CG5653,DRSC10534,,6378,4.25e5,inactive
Bsg,DRSC01010,,4635,3.53e5,inactive
Bsg,DRSC01011,,4890,4.56e5,inactive
CG15572,DRSC18060,,5763,3.19e5,inactive
14-3-3epsilon,DRSC16370,,6775,2.98e5,inactive
Cpr47Ef,DRSC06336,,5758,3.95e5,inactive
Cpr47Ef,DRSC22450,,3232,3.26e5,inactive
CG17803,DRSC15275,,3591,3.37e5,inactive
CG17803,DRSC22811,,4998,4.96e5,inactive
Gyc89Da,DRSC15008,,6322,4.10e5,inactive
Sgsh,DRSC14771,,6678,5.23e5,inactive
lark,DRSC11362,,6008,2.86e5,inactive
CG2201,DRSC03721,,75796,2.71e5,inactive
FER,DRSC12735,,8050,5.83e5,inactive
FER,DRSC16673,,6492,3.29e5,inactive
CG5111,DRSC15717,,6339,3.41e5,inactive
porin,DRSC03594,,5767,6.02e5,inactive
rn,DRSC12500,,5488,2.18e5,inactive
rn,DRSC12543,,6563,4.21e5,inactive
rn,DRSC12544,,6703,4.02e5,inactive
rn,DRSC12546,,6439,5.14e5,inactive
rn,DRSC22291,,8574,4.19e5,inactive

Ordered by “stable assay firefly, run 1 (luminescence)” (high to low): 3 of the entries above
predicted target,dsRNA,stable siRNA reporter change,"stable assay Renilla, run 1 (luminescence)","stable assay firefly, run 1 (luminescence)",call
Sgsh,DRSC14771,,6678,5.23e5,inactive
Gyc89Da,DRSC15008,,6322,4.10e5,inactive
lark,DRSC11362,,6008,2.86e5,inactive
